Reference: US8729012
A weaker result is weaker than the reference pair of the same experiment.

Target: gene 5 protein (g5p) (bacteriophage M13) (UniProt P69544)
Experiment: binding assay
Conditions: 5'-HS-C3H6 on gold nanoparticle; DLS assembly rate dropped dramatically at C-ssDNA fraction above about 0.05; 2.5 uM g5p, 5 nM ssDNA-Au; purified recombinant protein; variant of ssDNA on gold nanoparticles (ssDNA-Au)

“TTTTTTTTTTTTTTTTAACCTAACCTTCAT / ATGAAGGTTAGGTTA [ssDNA-Au prehybridized with C-ssDNA]”: binds more weakly.
